The values that follow come from PMC12583701.

Chains of the proteins cited; added tags and fusions are not shown. Lines headed by an entry give the natural chain unless they say otherwise; changes in a name come on top.
UniProt P49024: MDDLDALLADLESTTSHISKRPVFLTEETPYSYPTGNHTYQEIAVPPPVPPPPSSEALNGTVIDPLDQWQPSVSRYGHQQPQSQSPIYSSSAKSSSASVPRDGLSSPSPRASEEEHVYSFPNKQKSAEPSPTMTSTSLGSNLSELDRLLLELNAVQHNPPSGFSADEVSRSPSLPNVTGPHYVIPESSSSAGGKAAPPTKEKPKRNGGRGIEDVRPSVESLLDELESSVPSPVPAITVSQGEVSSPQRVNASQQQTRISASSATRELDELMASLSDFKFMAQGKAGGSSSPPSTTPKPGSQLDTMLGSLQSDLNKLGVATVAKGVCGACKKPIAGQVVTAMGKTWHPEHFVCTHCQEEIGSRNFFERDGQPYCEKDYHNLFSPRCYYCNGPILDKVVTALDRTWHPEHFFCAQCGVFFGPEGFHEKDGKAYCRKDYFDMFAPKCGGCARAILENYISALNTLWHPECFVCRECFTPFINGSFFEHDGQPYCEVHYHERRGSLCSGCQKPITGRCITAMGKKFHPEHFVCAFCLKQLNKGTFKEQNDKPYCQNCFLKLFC
UniProt Q8VI36: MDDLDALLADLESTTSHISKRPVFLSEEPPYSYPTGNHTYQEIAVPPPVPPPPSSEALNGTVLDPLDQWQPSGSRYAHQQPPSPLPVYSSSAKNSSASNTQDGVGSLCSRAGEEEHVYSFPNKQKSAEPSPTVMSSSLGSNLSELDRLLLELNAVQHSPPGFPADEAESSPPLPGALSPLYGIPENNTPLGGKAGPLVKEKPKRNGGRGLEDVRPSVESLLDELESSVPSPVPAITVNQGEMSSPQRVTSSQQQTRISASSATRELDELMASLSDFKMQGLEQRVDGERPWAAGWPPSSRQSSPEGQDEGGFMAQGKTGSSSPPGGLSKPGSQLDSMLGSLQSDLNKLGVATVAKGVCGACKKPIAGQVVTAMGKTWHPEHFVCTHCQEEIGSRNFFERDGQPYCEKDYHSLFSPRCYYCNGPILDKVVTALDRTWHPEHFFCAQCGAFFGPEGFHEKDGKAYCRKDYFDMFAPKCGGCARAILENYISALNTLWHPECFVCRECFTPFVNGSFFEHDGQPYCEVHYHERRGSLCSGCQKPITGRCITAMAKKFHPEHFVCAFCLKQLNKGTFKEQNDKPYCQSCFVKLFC
UniProt Q61701: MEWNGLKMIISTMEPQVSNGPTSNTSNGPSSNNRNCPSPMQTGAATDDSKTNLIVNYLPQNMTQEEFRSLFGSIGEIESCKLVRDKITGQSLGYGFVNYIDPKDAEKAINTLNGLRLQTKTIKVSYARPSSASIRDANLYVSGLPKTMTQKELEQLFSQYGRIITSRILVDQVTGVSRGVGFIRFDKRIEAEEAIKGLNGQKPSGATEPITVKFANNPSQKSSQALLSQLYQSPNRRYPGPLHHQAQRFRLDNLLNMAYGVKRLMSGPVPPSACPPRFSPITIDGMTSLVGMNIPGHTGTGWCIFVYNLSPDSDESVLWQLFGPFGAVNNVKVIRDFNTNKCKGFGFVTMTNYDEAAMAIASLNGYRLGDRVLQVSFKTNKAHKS
UniProt O09032: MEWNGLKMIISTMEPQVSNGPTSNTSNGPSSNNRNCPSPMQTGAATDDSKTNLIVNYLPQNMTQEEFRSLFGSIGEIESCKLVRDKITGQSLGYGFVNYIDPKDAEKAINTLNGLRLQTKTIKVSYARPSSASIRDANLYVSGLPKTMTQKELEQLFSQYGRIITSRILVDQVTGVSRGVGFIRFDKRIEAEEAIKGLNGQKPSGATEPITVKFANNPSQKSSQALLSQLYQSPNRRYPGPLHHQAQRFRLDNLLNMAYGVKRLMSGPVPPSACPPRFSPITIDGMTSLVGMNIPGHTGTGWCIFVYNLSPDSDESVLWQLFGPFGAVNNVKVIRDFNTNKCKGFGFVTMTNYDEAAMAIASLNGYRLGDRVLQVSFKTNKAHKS
UniProt O88477: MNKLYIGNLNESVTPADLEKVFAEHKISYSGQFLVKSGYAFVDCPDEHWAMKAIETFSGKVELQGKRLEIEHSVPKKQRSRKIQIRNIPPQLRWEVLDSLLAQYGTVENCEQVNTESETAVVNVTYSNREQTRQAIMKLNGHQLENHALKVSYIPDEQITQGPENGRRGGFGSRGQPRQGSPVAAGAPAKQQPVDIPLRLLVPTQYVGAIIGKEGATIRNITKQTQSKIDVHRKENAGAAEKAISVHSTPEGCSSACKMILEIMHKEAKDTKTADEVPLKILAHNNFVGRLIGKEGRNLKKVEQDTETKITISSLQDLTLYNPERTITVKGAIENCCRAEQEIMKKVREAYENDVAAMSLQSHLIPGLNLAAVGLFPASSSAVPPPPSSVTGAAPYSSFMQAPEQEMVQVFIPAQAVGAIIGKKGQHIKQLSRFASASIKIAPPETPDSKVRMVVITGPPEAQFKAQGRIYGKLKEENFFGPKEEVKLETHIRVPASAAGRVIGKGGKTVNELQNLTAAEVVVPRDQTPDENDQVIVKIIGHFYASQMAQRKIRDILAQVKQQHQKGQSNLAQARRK
UniProt P26369: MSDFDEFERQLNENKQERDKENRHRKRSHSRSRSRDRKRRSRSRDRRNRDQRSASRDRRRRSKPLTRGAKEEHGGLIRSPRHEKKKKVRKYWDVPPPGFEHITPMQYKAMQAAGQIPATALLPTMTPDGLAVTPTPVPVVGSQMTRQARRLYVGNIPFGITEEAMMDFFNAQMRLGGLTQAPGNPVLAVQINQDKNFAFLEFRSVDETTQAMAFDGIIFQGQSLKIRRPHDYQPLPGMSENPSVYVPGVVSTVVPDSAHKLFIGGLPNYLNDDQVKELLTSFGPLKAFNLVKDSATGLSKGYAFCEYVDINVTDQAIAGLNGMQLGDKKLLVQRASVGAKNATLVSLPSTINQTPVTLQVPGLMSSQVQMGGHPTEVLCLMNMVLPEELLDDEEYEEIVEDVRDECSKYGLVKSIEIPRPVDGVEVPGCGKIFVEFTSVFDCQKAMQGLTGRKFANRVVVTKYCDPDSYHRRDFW
UniProt F2Z3T9: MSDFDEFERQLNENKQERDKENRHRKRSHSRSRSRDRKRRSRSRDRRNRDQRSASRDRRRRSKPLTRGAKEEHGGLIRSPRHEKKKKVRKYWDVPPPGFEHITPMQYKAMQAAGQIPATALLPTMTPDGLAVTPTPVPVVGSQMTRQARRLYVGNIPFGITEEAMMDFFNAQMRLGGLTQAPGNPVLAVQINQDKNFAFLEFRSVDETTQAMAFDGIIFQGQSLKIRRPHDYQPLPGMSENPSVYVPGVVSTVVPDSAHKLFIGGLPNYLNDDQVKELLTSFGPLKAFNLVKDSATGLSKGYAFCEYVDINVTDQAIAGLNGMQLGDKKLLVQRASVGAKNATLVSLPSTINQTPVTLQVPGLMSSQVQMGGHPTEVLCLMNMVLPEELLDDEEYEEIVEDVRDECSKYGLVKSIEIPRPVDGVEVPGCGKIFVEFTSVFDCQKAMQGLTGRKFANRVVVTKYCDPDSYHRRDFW

In assay [1] the target is FLAG-tagged paxillin S119A (phospho-deficient) (UniProt P49024). The assay can be described thus: co-IP; anti-FLAG immunoprecipitation of lysates of Neuro2a cells transfected with FLAG-tagged paxillin variants, in the presence of forskolin; immunoblot of endogenous partners. A general note: In western blotting, separated proteins are transferred to a membrane and probed.
Assay [2] concerns the target FLAG-tagged wild-type paxillin (UniProt P49024). The assay is described as above.
For assay [3], the target named is paxillin (endogenous, brain lysate) (mouse (endogenous in brain)) (UniProt Q8VI36). The assay can be described thus: co-IP; paxillin immunoprecipitated from P7 and P15 brain lysate; immunoblot of co-precipitated proteins.
In assay [4] the target is paxillin (endogenous, rat primary neurons) (rat (endogenous in primary neuronal cultures)) (UniProt Q66H76). Briefly: co-IP; paxillin immunoprecipitated from lysates of DIV7 primary neuronal cultures (control, BDNF 20 ng/ml 2 h, or IPZ 5 μM 16 h then BDNF); immunoblot of co-precipitated proteins.
For assay [5], the target named is FLAG-tagged wild-type paxillin (UniProt P49024). The assay can be described thus: co-IP; anti-FLAG immunoprecipitation of lysates of Neuro2a cells transfected with FLAG-tagged paxillin variants, in the presence of forskolin; immunoblot of endogenous partners. The source holds these as a separate data set.
The target of assay [6] is FLAG-tagged paxillin S119D (phosphomimetic) (UniProt P49024). The description is as above.
The target in assay [7] is paxillin (endogenous, rat primary neurons) (rat (endogenous in primary neuronal cultures)) (UniProt Q66H76). The assay can be described thus: co-IP; paxillin immunoprecipitated from lysates of DIV7 primary neuronal cultures (control, BDNF 20 ng/ml 2 h, or IPZ 5 μM 16 h then BDNF); immunoblot of co-precipitated proteins. The source holds these as a separate data set.
Assay [8] deals with FLAG-tagged paxillin S119A (phospho-deficient) (UniProt P49024). The assay can be described thus: co-IP; anti-FLAG immunoprecipitation of lysates of Neuro2a cells transfected with FLAG-tagged paxillin variants, in the presence of forskolin; immunoblot of endogenous partners. This is another data set of the same source.

Read-outs that look alike come from different tables or passages of the source. Results are given in words; binding and its absence hold for the method and conditions named. Binding seen in cells or lysates may run through a third protein. Some results given as binding are weak or reduced against the parent protein; the word gives no strength.

As to “ELAVL4 (mouse) (from UniProt Q61701 1-385)”, the binding entry in assay [1], in assay [2] and in assay [3] was “binds” each time.
“ELAVL4 (rat) (from UniProt O09032 1-385)”: the binding entry in assay [4] is listed as “binds”.
In the case of “HNRNPK (mouse) (from UniProt P61979 1-463)”, the binding result in assay [3] is recorded as “binds”.
“HNRNPK (rat) (from UniProt P61980 1-463)”: in assay [4], the binding result is “binds”.
Turning to IGF2BP1 (from UniProt O88477 1-577), the binding result in assay [1] and in assay [2] was “binds” in each case.
For the molecule “U2AF2 (mouse) (from UniProt P26369 1-475)”, the binding entry in assay [3] is “binds”.
With U2AF2 (rat) (from UniProt F2Z3T9 1-475), the binding entry in assay [4] was “binds”.

B1: importin β2 (protein, UniProt Q8BFY9 1-898)
chain: MVWDRQTKMEYEWKPDEQGLQQILQLLKESQSPDTTIQRTVQQKLEQLNQYPDFNNYLIFVLTKLKSEDEPTRSLSGLILKNNVKAHFQNFPNGVTDFIKSECLNNIGDSSPLIRATVGILITTIASKGELQNWPDLLPKLCSLLDSEDYNTCEGAFGALQKICEDSAEILDSDVLDRPLNIMIPKFLQFFKHSSPKIRSHAVACVNQFIISRTQALMLHIDSFIENLFALAGDEEAEVRKNVCRALVMLLEVRMDRLLPHMHNIVEYMLQRTQDQDENVALEACEFWLTLAEQPICKDVLVRHLPKLIPVLVNGMKYSDIDIILLKGDVEEDETIPDSEQDIRPRFHRSRTVAQQHEEDGIEEEDDDDDEIDDDDTISDWNLRKCSAAALDVLANVYRDELLPHILPLLKELLFHHEWVVKESGILVLGAIAEGCMQGMIPYLPELIPHLIQCLSDKKALVRSITCWTLSRYAHWVVSQPPDTYLKPLMTELLKRILDSNKRVQEAACSAFATLEEEACTELVPYLAYILDTLVFAFSKYQHKNLLILYDAIGTLADSVGHHLNKPEYIQMLMPPLIQKWNMLKDEDKDLFPLLECLSSVATALQSGFLPYCEPVYQRCVNLVQKTLAQAMLNNAQPEQYEAPDKDFMIVALDLLSGLAEGLGGNIEQLVARSNILTLMYQCMQDKMPEVRQSSFALLGDLTKACFQHVKPCIADFMPILGTNLNPEFISVCNNATWAIGEISIQMGIEMQPYIPMVLHQLVEIINRPNTPKTLLENTAITIGRLGYVCPQEVAPMLQQFIRPWCTSLRNIRDNEEKDSAFRGICTMISVNPSGVIQDFIFFCDAVASWINPKDDLRDMFCKILHGFKNQVGDENWRRFSDQFPLPLKERLAAFYGV
With B1, the binding entry in assay [5] and in assay [6] was “binds” throughout.

B2: matrin3 (protein, UniProt P43244 1-845)
chain: MSKSFQQSSLGRDSQGHGRDLSAAGIGLLAAATQSLSMPASLGRMNQGTARLASLMNLGMSSSLNQQGAHSALSSASTSSHNLQSIFNIGSRGPLPLSSQHRGDTDQASNILASFGLSARDLDELSRYPEDKITPENLPQILLQLKRRRTEEGPTLSYGRDGRSATREPPYRVPRDDWEEKRHFRRDSFDDRGPSLNPVLDYDHGSRSQESGYYDRMDYEDDRLRDGERCRDDSFFGETSHNYHKFDSEYERMGRGPGPLQERSLFEKKRGAPPSSNIEDFHGLLPKGYPHLCSICDLPVHSNKEWSQHINGASHSRRCQLLLEIYPEWNPDNDTGHTMGDPFMLQQSTNPAPGILGPPPPSFHLGGPAVGPRGNLGAGNGNLQGPRHMQKGRVETSRVVHIMDFQRGKNLRYQLLQLVEPFGVISNHLILNKINEAFIEMATTEDAQAAVDYYTTTPALVFGKPVRVHLSQKYKRIKKPEGKPDEKFDQKQELGRVIHLSNLPHSGYSDSAVLKLAEPYGKIKNYILMRMKSQAFIEMETREDAMAMVDHCLKKALWFQGRCVKVDLSEKYKKLVLRIPNRGIDLLKKDKSRKRSYSPDGKESPSDKKSKTDGAQKTENPAEGKEQEEKSGEDGEKDTKDDQTEQEPSMLLESEDELLVDEEEAAALIESGSSVGDETDLANLGDVSSDGKKEPSDKAVKKDASATSKKKLKKVDKIEELDQENEAALENGIKNEENTEPGAESAENADDPNKDASDNSDGQNDENKEDYTIPDEYRIGPYQPNVPGGIDYVIPKTGFYCKLCSLFYTNEEVAKNTHCSSLPHYQKLKKFLNKLAEERRQKKES
As to B2, the binding result in assay [7] was “binds”.

B3: NOVA1 (protein, UniProt Q80WA4 1-474)
chain: MAAAPIQQNGTHTGVPIDLDPPDSRKRPLEAPPEAGSTKRTNTGEDGQYFLKVLIPSYAAGSIIGKGGQTIVQLQKETGATIKLSKSKDFYPGTTERVCLIQGTIEALNAVHGFIAEKIREMPQNVAKTEPVSILQPQTTVNPDRIKQVKIIVPNSTAGLIIGKGGATVKAIMEQSGAWVQLSQKPDGINLQERVVTVSGEPEQNRKAVELIIQKIQEDPQSGSCLNISYANVTGPVANSNPTGFPYANTAEVLPTAAAAAGLLGHANLAGVAAFPAVLSGFTGNDLVAITSALNTLASYGYNLNTLGLGLSQAAATGALAAAAASANPAAAAANLLATYASEASASGSTAGGTAGTFALGSLAAATAATNGYFGAASPLAASAILGTEKSTDGSKDVVEIAVPENLVGAILGKGGKTLVEYQELTGARIQISKKGEFVPGTRNRKVTITGTPAATQAAQYLITQRITYEQGVR
Consider B3, for which the binding result in assay [7] is “binds”.

B4: SF1 (mouse) (protein, UniProt Q64213 1-653)
chain: MATGANATPLDFPSKKRKRSRWNQDTMEQKTVIPGMPTVIPPGLTREQERAYIVQLQIEDLTRKLRTGDLGIPPNPEDRSPSPEPIYNSEGKRLNTREFRTRKKLEEERHTLITEMVALNPDFKPPADYKPPATRVSDKVMIPQDEYPEINFVGLLIGPRGNTLKNIEKECNAKIMIRGKGSVKEGKVGRKDGQMLPGEDEPLHALVTANTMENVKKAVEQIRNILKQGIETPEDQNDLRKMQLRELARLNGTLREDDNRILRPWQSSETRSITNTTVCTKCGGAGHIASDCKFQRPGDPQSAQDKARMDKEYLSLMAELGEAPVPASVGSTSGPATTPLASAPRPAAPASNPPPPSLMSTTQSRPPWMNSGPSENRPYHGMHGGGPGGPGGGPHSFPHPLPSLTGGHGGHPMQHNPNGPPPPWMQPPPPPMNQGPHPPGHHGPPPMDQYLGSTPVGSGVYRLHQGKGMMPPPPMGMMPPPPPPPSGQPPPPPSGPLPPWQQQQQQPPPPPPPSSSMASSTPLPWQQNTTTTTTSAGTGSIPPWQQQQAAAAASPGTPQMQGNPTMVPLPPGVQPPLPPGAPPPPPCSIECLLCLLSSPNSLCLSPNRAARIPPRGSDGPSHESEDFPRPLVTLPGRQPQQRPWWTGWFGKAA
For the molecule B4, the binding entry in assay [3] is “binds”.

B5: U2AF1 (mouse) (protein, UniProt Q9D883 1-239)
chain: MAEYLASIFGTEKDKVNCSFYFKIGACRHGDRCSRLHNKPTFSQTIALLNIYRNPQNSSQSADGLRCAVSDVEMQEHYDEFFEEVFTEMEEKYGEVEEMNVCDNLGDHLVGNVYVKFRREEDAEKAVIDLNNRWFNGQPIHAELSPVTDFREACCRQYEMGECTRGGFCNFMHLKPISRELRRELYGRRRKKHRSRSRSRERRSRSRDRGRGGGGGGGGGGGRERDRRRSRDRERSGRF
Consider B5, for which the binding result in assay [8], in assay [5] and in assay [3] was “binds” each time.

B6: SF3B1 (protein, UniProt Q99NB9 1-1304)
chain: MAKIAKTHEDIEAQIREIQGKKAALDEAQGVGLDSTGYYDQEIYGGSDSRFAGYVTSIAATELEDDDDDYSSSTSLLGQKKPGYHAPVALLNDIPQSTEQYDPFAEHRPPKIADREDEYKKHRRTMIISPERLDPFADGGKTPDPKMNARTYMDVMREQHLTKEEREIRQQLAEKAKAGELKVVNGAAASQPPSKRKRRWDQTADQTPGATPKKLSSWDQAETPGHTPSLRWDETPGRAKGSETPGATPGSKIWDPTPSHTPAGAATPGRGDTPGHATPGHGGATSSARKNRWDETPKTERDTPGHGSGWAETPRTDRGGDSIGETPTPGASKRKSRWDETPASQMGGSTPVLTPGKTPIGTPAMNMATPTPGHIMSMTPEQLQAWRWEREIDERNRPLSDEELDAMFPEGYKVLPPPAGYVPIRTPARKLTATPTPLGGMTGFHMQTEDRTMKSVNDQPSGNLPFLKPDDIQYFDKLLVDVDESTLSPEEQKERKIMKLLLKIKNGTPPMRKAALRQITDKAREFGAGPLFNQILPLLMSPTLEDQERHLLVKVIDRILYKLDDLVRPYVHKILVVIEPLLIDEDYYARVEGREIISNLAKAAGLATMISTMRPDIDNMDEYVRNTTARAFAVVASALGIPSLLPFLKAVCKSKKSWQARHTGIKIVQQIAILMGCAILPHLRSLVEIIEHGLVDEQQKVRTISALAIAALAEAATPYGIESFDSVLKPLWKGIRQHRGKGLAAFLKAIGYLIPLMDAEYANYYTREVMLILIREFQSPDEEMKKIVLKVVKQCCGTDGVEANYIKTEILPPFFKHFWQHRMALDRRNYRQLVDTTVELANKVGAAEIISRIVDDLKDEAEQYRKMVMETIEKIMGNLGAADIDHKLEEQLIDGILYAFQEQTTEDSVMLNGFGTVVNALGKRVKPYLPQICGTVLWRLNNKSAKVRQQAADLISRTAVVMKTCQEEKLMGHLGVVLYEYLGEEYPEVLGSILGALKAIVNVIGMHKMTPPIKDLLPRLTPILKNRHEKVQENCIDLVGRIADRGAEYVSAREWMRICFELLELLKAHKKAIRRATVNTFGYIAKAIGPHDVLATLLNNLKVQERQNRVCTTVAIAIVAETCSPFTVLPALMNEYRVPELNVQNGVLKSLSFLFEYIGEMGKDYIYAVTPLLEDALMDRDLVHRQTASAVVQHMSLGVYGFGCEDSLNHLLNYVWPNVFETSPHVIQAVMGALEGLRVAIGPCRMLQYCLQGLFHPARKVRDVYWKIYNSIYIGSQDALIAHYPRIYNDDKNTYIRYDLDYIL
In the case of B6, the binding entry in assay [8] and in assay [5] was “binds” each time.
